Primary screen of a compound library

Amino acid sequences for entries named in this document (tags omitted). Residues count along the entry.
UniProt Q4DA54, 1-478: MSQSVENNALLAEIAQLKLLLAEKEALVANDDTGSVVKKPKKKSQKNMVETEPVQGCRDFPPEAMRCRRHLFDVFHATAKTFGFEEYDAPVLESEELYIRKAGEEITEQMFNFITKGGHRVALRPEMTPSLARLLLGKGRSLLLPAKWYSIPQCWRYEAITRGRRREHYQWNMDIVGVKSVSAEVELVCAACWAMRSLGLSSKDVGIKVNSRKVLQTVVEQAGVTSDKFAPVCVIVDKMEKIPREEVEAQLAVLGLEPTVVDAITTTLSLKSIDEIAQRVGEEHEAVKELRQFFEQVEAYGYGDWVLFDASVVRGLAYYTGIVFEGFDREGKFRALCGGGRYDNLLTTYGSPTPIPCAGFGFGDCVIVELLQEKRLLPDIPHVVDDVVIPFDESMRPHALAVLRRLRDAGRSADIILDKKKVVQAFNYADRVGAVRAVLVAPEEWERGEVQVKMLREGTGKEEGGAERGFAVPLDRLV

Source: ChEMBL document CHEMBL3988442, “University of Dundee, Small-Polar-MMV Screening Library” (2021).

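Histidine-tRNA ligase, Trypanosoma cruzi CL Brener (UniProt Q4DA54). Enzyme assay of histidyl-tRNA synthetase; the read-out is not stated. Concentration: 30 µM. Higher reads as stronger inhibition (inferred: compounds with an IC50 in retests scored well above the rest). About 69,000 compounds were tested under these conditions; 0.045% (about 31) showed 50% or more at least once.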

Each number is a percent effect as filed.
The controls that fix the scale are not given in the record; negative values are as filed.
The compounds are a random part of those screened.

Result for CC(C)N1CCN2C(=O)N(C3CCCCC3)C[C@H]2C1 was 0.4975%. CS(=O)(=O)N1C[C@H](C(=O)Nc2cnccn2)C[C@H]2OCC[C@H]21 read -1.266%. Result for CC(C)N1CCC2(CC1)C(=O)N(c1cccnc1)c1ccc(F)cc12 was 0.5348%. Result for CCc1cnc(N)nc1NCCCn1cc(Cl)cn1 was 5.682%. Result for CC(CNC(=O)N1CCN(CC(F)F)CC1)Cc1cccs1 (stereo unspecified) was -2.674%. With CN1CCCC1c1ccc(C(=O)Nc2c3c(nn2C)CCC3)s1 (stereo unspecified) the screen gave 9.901%. CC1CN(C)CCN1C(=O)c1ccn(-c2cccc(Cl)c2)n1 (stereo unspecified) gave -0.7634%.

With Cc1cnc(N2CCOC(C(=O)NCc3ccccc3)C2)s1 (stereo unspecified) the screen gave 9.398%. Result for COc1ccsc1C(=O)NC1CCN(c2ccc(C#N)cc2)CC1 was 8.04%. O=C(Nc1nc2c(s1)CNCC2)C1CC1 read 9%. For Cc1csc(CNC(=O)NCC(O)c2ccc(F)cc2)n1 (stereo unspecified) the result was 0%. CN1CCOC(C(=O)Nc2nc(-c3ccc(Cl)cc3)n[nH]2)C1 (stereo unspecified) read 5.419%. c1cnc2ccc(C[C@@H]3CC[C@H](CN4CCCOCC4)O3)cc2c1 read 10.73%. CC(C)C(C)(C#N)NC(=O)Cn1nnc(-c2cc3ccccc3o2)n1 (stereo unspecified) read -5.172%.

Result for O=C(NCC1(N2CCOCC2)CCSC1)Nc1ccccn1 (stereo unspecified) was 3.941%. CCC(CC)C(O)CNC(=O)Cc1c[nH]c2ncccc12 (stereo unspecified) gave 8.247%. Result for CCc1n[nH]c(C2CN(C(=O)c3ccc4c(c3)COC4)CCO2)n1 (stereo unspecified) was 4.373%. With CCC(=O)NCc1ccccc1Cn1ccnc1 the screen gave 2.062%. With CCOCc1ccccc1NC(=O)NC1CCN(CC(F)(F)F)C1 (stereo unspecified) the screen gave 1.685%. CC(C)c1cnc(CN2C(=O)CC3(CCSC3)C2=O)o1 (stereo unspecified) read 0.5236%. COCCn1ccnc1C1CCN(C(=O)CSc2nnc(C)s2)CC1 gave 1.786%.

With CC(C)CC(NC(=O)c1ccc[nH]1)C(=O)N1CCC(CO)CC1 (stereo unspecified) the screen gave -2.105%. For c1ccc(N2CCOC3(CCCN(c4nncs4)C3)C2)nc1 (stereo unspecified) the result was 6.522%. c1cncc(-n2cnnc2CC2CCNCC2)c1 read 4.444%. COc1c(CNCc2ccc(C(=O)N3CCCC3)cc2)c(C)nn1C gave 4.843%. Result for Cc1nc(C)c(CNC(=O)NC2CC(C)(C)OC2(C)C)s1 (stereo unspecified) was -23.81%. Result for Cc1noc(C)c1CS(=O)(=O)Cc1nc(C2CC2)no1 was 8.929%. Cc1ccc(CN2C[C@H]3CC[C@@H]2CN(Cc2[nH]cnc2C)C3)o1 gave 3.865%.

Result for O=C1NCC(C(=O)Nc2ncc(Cc3ccc(F)cc3F)s2)N1 (stereo unspecified) was 7.736%.